Experimental data reported in the supplement of paper PMC8728848.
This is one part of the list.

How the values were obtained:
Experiment in all cases: glycan array binding signal (z-score within array); higher = stronger binding
Settings in all cases: glycan notation: IUPAC condensed, linker removed
[1] = molecular target: Fuc(a1-2)Gal
How it was run: (§1)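 Negative Z-scores can be read as non-binding. The Z-score is calculated within each array and then averaged across arrays of one protein sequence at different concentrations or buffers and across linkers. Arrays, 3228 in all, were curated from the Consortium for Functional Glycomics database and kept only where the protein sequence was available.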

[2] = molecular target: Fuc(a1-2)Gal(b1-3)GalNAc
How it was run: as §1

[3] = molecular target: Fuc(a1-2)Gal(b1-3)GalNAc(a1-3)[Fuc(a1-2)]Gal(b1-4)Glc
How it was run: as §1

[4] = molecular target: Fuc(a1-2)Gal(b1-3)GalNAc(a1-3)[Fuc(a1-2)]Gal(b1-4)GlcNAc
How it was run: as §1

[5] = molecular target: Fuc(a1-2)Gal(b1-3)GalNAc(b1-3)Gal
How it was run: as §1

[6] = molecular target: Fuc(a1-2)Gal(b1-3)GalNAc(b1-3)Gal(a1-4)Gal(b1-4)Glc
How it was run: as §1

[7] = molecular target: Fuc(a1-2)Gal(b1-3)GalNAc(b1-4)[Neu5Ac(a2-3)]Gal(b1-4)Glc
How it was run: as §1

[8] = molecular target: Fuc(a1-2)Gal(b1-3)GlcNAc
How it was run: as §1

[9] = molecular target: Fuc(a1-2)Gal(b1-3)GlcNAc(b1-2)Man(a1-3)[Fuc(a1-2)Gal(b1-3)GlcNAc(b1-2)Man(a1-6)]Man(b1-4)GlcNAc(b1-4)GlcNAc
How it was run: as §1

[10] = molecular target: Fuc(a1-2)Gal(b1-3)GlcNAc(b1-2)Man(a1-3)[Fuc(a1-2)Gal(b1-3)GlcNAc(b1-2)Man(a1-6)]Man(b1-4)GlcNAc(b1-4)[Fuc(a1-6)]GlcNAc
How it was run: as §1

[11] = molecular target: Fuc(a1-2)Gal(b1-3)GlcNAc(b1-3)Gal(b1-4)Glc
How it was run: as §1

[12] = molecular target: Fuc(a1-2)Gal(b1-3)GlcNAc(b1-3)GalNAc
How it was run: as §1

[13] = molecular target: Fuc(a1-2)Gal(b1-3)GlcNAc(b1-3)[Fuc(a1-2)Gal(b1-3)GlcNAc(b1-6)]GalNAc
How it was run: as §1

[14] = molecular target: Fuc(a1-2)Gal(b1-3)GlcNAc(b1-3)[Gal(b1-4)GlcNAc(b1-6)]Gal(b1-4)Glc
How it was run: as §1

[15] = molecular target: Fuc(a1-2)Gal(b1-3)GlcNAc(b1-3)[Neu5Ac(a2-6)Gal(b1-4)GlcNAc(b1-6)]Gal(b1-4)Glc
How it was run: as §1

[16] = molecular target: Fuc(a1-2)Gal(b1-3)GlcNAc6S
How it was run: as §1

[17] = molecular target: Fuc(a1-2)Gal(b1-3)[Fuc(a1-4)]GlcNAc
How it was run: as §1

[18] = molecular target: Fuc(a1-2)Gal(b1-3)[Fuc(a1-4)]GlcNAc(b1-2)Man(a1-3)[Fuc(a1-2)Gal(b1-3)[Fuc(a1-4)]GlcNAc(b1-2)Man(a1-3)]Man(b1-4)GlcNAc(b1-4)GlcNAc
How it was run: as §1

[19] = molecular target: Fuc(a1-2)Gal(b1-3)[Fuc(a1-4)]GlcNAc(b1-2)Man(a1-3)[Fuc(a1-2)Gal(b1-3)[Fuc(a1-4)]GlcNAc(b1-2)Man(a1-6)]Man(b1-4)GlcNAc(b1-4)[Fuc(a1-6)]GlcNAc(b1-4)[Fuc(a1-6)]GlcNAc
How it was run: as §1

[20] = molecular target: Fuc(a1-2)Gal(b1-3)[Fuc(a1-4)]GlcNAc(b1-3)[Fuc(a1-3)[Gal(b1-4)]GlcNAc(b1-6)]Gal(b1-4)Glc
How it was run: as §1

[21] = molecular target: Fuc(a1-2)Gal(b1-3)[Fuc(a1-4)]GlcNAc(b1-3)[Gal(b1-4)GlcNAc(b1-6)]Gal(b1-4)Glc
How it was run: as §1

[22] = molecular target: Fuc(a1-2)Gal(b1-4)Fuc(a1-3)]GlcNAc(b1-2)Man(a1-3)[Fuc(a1-2)Gal(b1-4)[Fuc(a1-3)]GlcNAc(b1-2)Man(a1-6)]Man(b1-4)GlcNAc(b1-4)GlcNAc
How it was run: as §1

[23] = molecular target: Fuc(a1-2)Gal(b1-4)Glc
How it was run: as §1

[24] = molecular target: Fuc(a1-2)Gal(b1-4)Glc6S
How it was run: as §1

[25] = molecular target: Fuc(a1-2)Gal(b1-4)GlcNAc
How it was run: as §1

[26] = molecular target: Fuc(a1-2)Gal(b1-4)GlcNAc(b1-2)Man
How it was run: as §1

[27] = molecular target: Fuc(a1-2)Gal(b1-4)GlcNAc(b1-2)Man(a1-3)[Fuc(a1-2)Gal(b1-4)GlcNAc(b1-2)Man(a1-6)]Man(b1-4)GlcNAc(b1-4)GlcNAc
How it was run: as §1

[28] = molecular target: Fuc(a1-2)Gal(b1-4)GlcNAc(b1-2)Man(a1-3)[Fuc(a1-2)Gal(b1-4)GlcNAc(b1-2)Man(a1-6)]Man(b1-4)GlcNAc(b1-4)[Fuc(a1-6)]GlcNAc
How it was run: as §1

[29] = molecular target: Fuc(a1-2)Gal(b1-4)GlcNAc(b1-2)[Fuc(a1-2)Gal(b1-4)GlcNAc(b1-4)]Man(a1-3)[Fuc(a1-2)Gal(b1-4)GlcNAc(b1-2)Man(a1-6)]Man(b1-4)GlcNAc(b1-4)GlcNAc
How it was run: as §1

[30] = molecular target: Fuc(a1-2)Gal(b1-4)GlcNAc(b1-3)Gal(b1-4)GlcNAc
How it was run: as §1

B1: LysMD3 (Homo sapiens), Q7Z3D4 (protein)
chain: MAGRHQNRSFPLPGVQSSGQVHAFGNCSDSDILEEDAEVYELRSRGKEKVRRSTSRDRLDDIIVLTKDIQEGDTLNAIALQYCCTVADIKRVNNLISDQDFFALRSIKIPVKKFSSLTETLCPPKGRQTSRHSSVQYSSEQQEILPANDSLAYSDSAGSFLKEVDRDIEQIVKCTDNKRENLNEVVSALTAQQMRFEPDNKNTQRKDPYYGADWGIG
[1]
  glycan array binding signal (z-score): 0.661
[2]
  glycan array binding signal (z-score): -0.536
[3]
  glycan array binding signal (z-score): -0.091
[4]
  glycan array binding signal (z-score): -0.867
[5]
  glycan array binding signal (z-score): -0.99
[6]
  glycan array binding signal (z-score): 0.086
[7]
  glycan array binding signal (z-score): -0.144
[8]
  glycan array binding signal (z-score): 0.182
[9]
  glycan array binding signal (z-score): 0.159
[10]
  glycan array binding signal (z-score): 0.739
[11]
  glycan array binding signal (z-score): -0.119
[12]
  glycan array binding signal (z-score): 0.587
[13]
  glycan array binding signal (z-score): 0.08
[14]
  glycan array binding signal (z-score): -0.707
[15]
  glycan array binding signal (z-score): 0.587
[16]
  glycan array binding signal (z-score): -0.457
[17]
  glycan array binding signal (z-score): 0.255
[18]
  glycan array binding signal (z-score): -0.272
[19]
  glycan array binding signal (z-score): 0.341
[20]
  glycan array binding signal (z-score): -0.747
[21]
  glycan array binding signal (z-score): -0.685
[22]
  glycan array binding signal (z-score): -1.11
[23]
  glycan array binding signal (z-score): 0.506
[24]
  glycan array binding signal (z-score): -0.391
[25]
  glycan array binding signal (z-score): 1.02
[26]
  glycan array binding signal (z-score): -0.973
[27]
  glycan array binding signal (z-score): 0.353
[28]
  glycan array binding signal (z-score): 0.664
[29]
  glycan array binding signal (z-score): -0.03
[30]
  glycan array binding signal (z-score): 0.791
